Final ms purity data for 1 substance are collected here from patent US8883964B2 (The Johns Hopkins University, priority 2004, dated 2014).

This data set can be described thus: general procedure: Fmoc solid-phase peptide synthesis; Wang resin; HBTU/DIPEA. Particulars: whole synthesis, MALDI-TOF.

As to (Pro-Hyp-Gly)7-Tyr, the final ms purity result was “greater than 99% purity”.
